These results are taken from publication doi:10.1101/2020.11.22.393603 (bioRxiv, 2020).

These are yes or no findings as the source states them, for the method shown. Binding seen in cells or lysates may run through a third protein. Some binding calls cover weakened binding; strength is not graded here. Where a sequence is shown, tags or fusion partners need not be part of it.

The target of assay [1] is T1, LSD1-sGFP (35S:LSD1-sGFP, Arabidopsis leaf protoplasts) (Arabidopsis thaliana) (UniProt P94077).
T1 sequence: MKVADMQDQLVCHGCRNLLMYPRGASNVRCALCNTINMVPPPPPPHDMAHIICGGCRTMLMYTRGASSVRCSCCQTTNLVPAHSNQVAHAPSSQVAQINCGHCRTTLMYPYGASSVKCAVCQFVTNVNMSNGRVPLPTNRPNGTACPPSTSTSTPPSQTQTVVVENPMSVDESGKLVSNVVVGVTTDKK
The assay is described as follows: co-IP.

The target of assay [2] is T2, LSD1-YFP^N (Arabidopsis thaliana) (UniProt P94077).
T2 sequence: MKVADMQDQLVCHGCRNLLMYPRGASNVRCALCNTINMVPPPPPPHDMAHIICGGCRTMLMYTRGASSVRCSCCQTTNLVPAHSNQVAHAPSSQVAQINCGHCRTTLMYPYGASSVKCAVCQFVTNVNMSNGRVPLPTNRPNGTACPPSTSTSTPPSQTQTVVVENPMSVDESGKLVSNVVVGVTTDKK
Kind of assay: split reporter.

B1: LSD1-sGFP (35S:LSD1-sGFP, Arabidopsis leaf protoplasts) (protein, UniProt P94077 1-189)
chain: MKVADMQDQLVCHGCRNLLMYPRGASNVRCALCNTINMVPPPPPPHDMAHIICGGCRTMLMYTRGASSVRCSCCQTTNLVPAHSNQVAHAPSSQVAQINCGHCRTTLMYPYGASSVKCAVCQFVTNVNMSNGRVPLPTNRPNGTACPPSTSTSTPPSQTQTVVVENPMSVDESGKLVSNVVVGVTTDKK
In the case of B1, the binding entry in assay [1] is on record as “binds”.

B2: LSD1-YFP^N (protein, UniProt P94077 1-189)
chain: MKVADMQDQLVCHGCRNLLMYPRGASNVRCALCNTINMVPPPPPPHDMAHIICGGCRTMLMYTRGASSVRCSCCQTTNLVPAHSNQVAHAPSSQVAQINCGHCRTTLMYPYGASSVKCAVCQFVTNVNMSNGRVPLPTNRPNGTACPPSTSTSTPPSQTQTVVVENPMSVDESGKLVSNVVVGVTTDKK
In the case of B2, in assay [2], the binding entry is on record as “binds”.
